# Source: patent US7138236
# Chains of the proteins cited; added tags and fusions are not shown. A line that says so, or that is headed by a name, gives the form on record, which may keep a tag or linker. Residues count along the entry.
# UniProt P78527, other isoform, or with tags, fused parts or gaps: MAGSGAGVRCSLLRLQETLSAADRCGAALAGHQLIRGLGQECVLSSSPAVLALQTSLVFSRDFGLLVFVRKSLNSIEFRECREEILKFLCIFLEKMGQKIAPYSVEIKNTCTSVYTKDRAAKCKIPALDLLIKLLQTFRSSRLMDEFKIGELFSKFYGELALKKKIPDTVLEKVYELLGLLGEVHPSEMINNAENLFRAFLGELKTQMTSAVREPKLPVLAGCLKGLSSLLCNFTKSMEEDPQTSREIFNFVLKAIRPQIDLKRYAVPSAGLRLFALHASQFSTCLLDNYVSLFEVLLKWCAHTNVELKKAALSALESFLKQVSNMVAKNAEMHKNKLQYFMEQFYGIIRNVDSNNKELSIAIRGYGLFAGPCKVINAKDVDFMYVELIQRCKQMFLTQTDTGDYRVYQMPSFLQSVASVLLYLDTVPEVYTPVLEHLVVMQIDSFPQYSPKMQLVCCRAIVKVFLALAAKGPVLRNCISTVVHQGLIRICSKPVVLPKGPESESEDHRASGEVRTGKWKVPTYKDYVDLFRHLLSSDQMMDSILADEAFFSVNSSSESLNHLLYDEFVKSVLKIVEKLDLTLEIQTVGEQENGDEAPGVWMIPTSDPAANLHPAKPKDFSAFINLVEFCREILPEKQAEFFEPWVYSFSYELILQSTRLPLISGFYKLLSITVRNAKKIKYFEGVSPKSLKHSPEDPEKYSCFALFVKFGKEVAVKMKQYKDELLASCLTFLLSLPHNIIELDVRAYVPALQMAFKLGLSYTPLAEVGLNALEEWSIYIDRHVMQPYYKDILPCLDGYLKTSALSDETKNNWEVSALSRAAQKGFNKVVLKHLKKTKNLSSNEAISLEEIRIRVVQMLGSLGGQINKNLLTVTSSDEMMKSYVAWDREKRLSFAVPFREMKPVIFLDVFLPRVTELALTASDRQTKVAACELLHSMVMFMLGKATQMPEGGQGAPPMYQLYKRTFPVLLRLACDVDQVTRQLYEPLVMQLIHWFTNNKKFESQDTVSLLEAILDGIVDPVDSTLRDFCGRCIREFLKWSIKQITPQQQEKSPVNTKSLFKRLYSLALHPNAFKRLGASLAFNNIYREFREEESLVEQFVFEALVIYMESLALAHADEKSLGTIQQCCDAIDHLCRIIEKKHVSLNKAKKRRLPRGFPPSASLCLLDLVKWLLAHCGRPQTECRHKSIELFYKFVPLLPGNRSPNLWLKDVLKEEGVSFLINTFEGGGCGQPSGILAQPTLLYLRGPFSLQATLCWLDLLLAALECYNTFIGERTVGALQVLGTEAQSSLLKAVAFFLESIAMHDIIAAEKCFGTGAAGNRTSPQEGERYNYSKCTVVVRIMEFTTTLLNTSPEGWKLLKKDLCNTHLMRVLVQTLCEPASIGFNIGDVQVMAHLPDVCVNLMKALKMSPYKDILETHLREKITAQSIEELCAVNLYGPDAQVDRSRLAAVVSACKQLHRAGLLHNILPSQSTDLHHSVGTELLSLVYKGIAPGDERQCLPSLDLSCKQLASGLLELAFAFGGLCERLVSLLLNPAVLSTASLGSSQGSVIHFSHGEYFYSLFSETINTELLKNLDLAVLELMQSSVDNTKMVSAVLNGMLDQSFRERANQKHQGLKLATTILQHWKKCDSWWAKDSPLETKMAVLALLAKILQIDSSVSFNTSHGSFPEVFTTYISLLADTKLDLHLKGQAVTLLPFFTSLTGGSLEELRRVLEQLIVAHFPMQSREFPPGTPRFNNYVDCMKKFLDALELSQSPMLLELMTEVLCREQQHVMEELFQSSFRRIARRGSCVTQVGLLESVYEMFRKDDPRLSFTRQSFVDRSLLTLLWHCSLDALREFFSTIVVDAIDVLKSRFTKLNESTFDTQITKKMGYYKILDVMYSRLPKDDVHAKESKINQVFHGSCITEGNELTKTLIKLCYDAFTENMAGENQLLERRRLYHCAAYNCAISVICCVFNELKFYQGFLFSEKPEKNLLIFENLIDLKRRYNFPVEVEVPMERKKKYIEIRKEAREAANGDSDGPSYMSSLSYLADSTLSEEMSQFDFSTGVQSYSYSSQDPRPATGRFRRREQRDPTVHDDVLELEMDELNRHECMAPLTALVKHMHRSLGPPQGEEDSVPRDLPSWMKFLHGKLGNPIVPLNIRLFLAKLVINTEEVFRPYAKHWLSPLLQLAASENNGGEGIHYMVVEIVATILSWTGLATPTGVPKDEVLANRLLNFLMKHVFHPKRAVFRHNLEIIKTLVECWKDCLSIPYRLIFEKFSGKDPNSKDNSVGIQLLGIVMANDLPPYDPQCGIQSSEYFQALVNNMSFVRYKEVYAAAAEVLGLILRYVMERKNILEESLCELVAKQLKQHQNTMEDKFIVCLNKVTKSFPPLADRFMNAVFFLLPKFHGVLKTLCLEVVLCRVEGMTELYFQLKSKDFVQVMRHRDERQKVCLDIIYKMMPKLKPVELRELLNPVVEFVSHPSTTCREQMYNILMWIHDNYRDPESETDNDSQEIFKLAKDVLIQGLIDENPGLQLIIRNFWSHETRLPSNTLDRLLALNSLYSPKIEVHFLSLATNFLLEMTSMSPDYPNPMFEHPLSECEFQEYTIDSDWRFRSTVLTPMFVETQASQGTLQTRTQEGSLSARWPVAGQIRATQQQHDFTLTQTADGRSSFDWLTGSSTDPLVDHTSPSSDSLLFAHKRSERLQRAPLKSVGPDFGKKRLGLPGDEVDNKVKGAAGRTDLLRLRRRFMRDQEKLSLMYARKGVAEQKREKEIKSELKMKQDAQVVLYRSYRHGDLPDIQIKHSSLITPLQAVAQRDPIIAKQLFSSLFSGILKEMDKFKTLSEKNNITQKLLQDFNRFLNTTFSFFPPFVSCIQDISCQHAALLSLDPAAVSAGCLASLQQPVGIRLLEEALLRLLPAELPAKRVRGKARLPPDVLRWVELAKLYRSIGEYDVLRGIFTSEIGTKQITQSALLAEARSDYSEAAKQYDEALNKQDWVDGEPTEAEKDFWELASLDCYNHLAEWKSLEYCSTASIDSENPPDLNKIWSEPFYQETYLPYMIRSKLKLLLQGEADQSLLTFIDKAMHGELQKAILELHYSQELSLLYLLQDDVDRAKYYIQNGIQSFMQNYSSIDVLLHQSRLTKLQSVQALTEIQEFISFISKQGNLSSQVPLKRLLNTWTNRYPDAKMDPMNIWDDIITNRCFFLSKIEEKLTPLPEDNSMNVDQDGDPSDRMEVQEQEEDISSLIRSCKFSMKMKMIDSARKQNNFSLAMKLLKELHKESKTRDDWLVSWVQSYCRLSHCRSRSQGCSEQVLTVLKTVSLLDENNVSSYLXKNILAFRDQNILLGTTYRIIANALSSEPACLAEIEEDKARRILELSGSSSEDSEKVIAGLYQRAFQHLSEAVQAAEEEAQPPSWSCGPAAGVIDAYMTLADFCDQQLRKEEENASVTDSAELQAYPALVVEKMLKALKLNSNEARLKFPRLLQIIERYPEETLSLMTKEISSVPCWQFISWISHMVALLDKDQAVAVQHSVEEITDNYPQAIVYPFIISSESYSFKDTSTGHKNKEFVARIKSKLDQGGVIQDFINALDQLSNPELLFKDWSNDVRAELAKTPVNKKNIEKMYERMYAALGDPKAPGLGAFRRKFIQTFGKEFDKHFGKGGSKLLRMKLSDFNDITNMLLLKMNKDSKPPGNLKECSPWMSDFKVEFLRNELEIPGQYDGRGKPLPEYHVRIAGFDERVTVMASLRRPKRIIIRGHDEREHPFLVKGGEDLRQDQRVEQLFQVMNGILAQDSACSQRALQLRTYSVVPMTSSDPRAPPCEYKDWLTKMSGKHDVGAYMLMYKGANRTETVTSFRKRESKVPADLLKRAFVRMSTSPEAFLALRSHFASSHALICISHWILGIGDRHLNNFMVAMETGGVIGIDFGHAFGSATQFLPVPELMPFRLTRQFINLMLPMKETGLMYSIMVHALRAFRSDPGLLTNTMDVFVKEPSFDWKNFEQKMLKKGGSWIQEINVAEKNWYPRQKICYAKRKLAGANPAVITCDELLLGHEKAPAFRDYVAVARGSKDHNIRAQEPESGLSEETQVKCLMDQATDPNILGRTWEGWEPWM
# UniProt P08047, 2-785: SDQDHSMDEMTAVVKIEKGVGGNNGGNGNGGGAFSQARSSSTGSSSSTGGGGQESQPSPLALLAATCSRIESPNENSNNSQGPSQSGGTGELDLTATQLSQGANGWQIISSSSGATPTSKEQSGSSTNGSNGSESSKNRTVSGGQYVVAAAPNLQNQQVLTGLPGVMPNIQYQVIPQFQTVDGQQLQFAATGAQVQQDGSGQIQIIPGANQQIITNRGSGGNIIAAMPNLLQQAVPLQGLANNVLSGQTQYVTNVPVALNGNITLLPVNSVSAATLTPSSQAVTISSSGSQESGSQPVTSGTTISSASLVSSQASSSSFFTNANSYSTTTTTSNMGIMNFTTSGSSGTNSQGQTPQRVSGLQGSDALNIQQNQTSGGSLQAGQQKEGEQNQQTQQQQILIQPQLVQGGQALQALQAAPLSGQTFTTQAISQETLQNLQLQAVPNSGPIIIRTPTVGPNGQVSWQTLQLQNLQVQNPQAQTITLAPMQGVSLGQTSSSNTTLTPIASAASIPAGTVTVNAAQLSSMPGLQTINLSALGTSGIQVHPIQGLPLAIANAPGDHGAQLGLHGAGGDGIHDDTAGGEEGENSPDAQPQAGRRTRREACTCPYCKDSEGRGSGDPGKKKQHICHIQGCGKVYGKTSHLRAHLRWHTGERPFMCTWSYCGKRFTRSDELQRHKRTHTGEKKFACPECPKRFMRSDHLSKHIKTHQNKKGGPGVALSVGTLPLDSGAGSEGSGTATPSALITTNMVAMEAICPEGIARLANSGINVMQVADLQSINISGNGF
# For at least one entry, the source does not settle the construct or the ends of the probe. Results from cells or extracts need not show a direct contact. For part of these data: Negatives hold for the conditions tested. For part of these data: The comparison behind a weaker result is the experiment's own reference, which may not be listed here.
# Columns and labels:
# Test in all cases: pull-down
# [1] = target: ATM (Homo sapiens) (UniProt Q13315); details: protein in an extract
# [2] = target: DNA-PKcs (with Ku present in extract) (Homo sapiens) (UniProt P78527); details: binds only very inefficiently; data not shown; protein in an extract; protein details: native, HeLa nuclear extract; label: 5' biotin on SEQ:16
# [3] = target: Sp1 (Homo sapiens) (UniProt P08047); details: no stable interaction with random 50-mer; protein in an extract; protein details: native, HeLa nuclear extract; label: 5' biotin on SEQ:16
# [4] = test system: RNA polymerase II (Homo sapiens); details: no stable interaction with random 50-mer; protein in an extract; protein details: native complex, HeLa nuclear extract; label: 5' biotin on SEQ:16
# [5] = equal efficiency to fully ds DNA, label: 5' biotin on SEQ:21, folded or branched DNA
sequence,measurement,setting,value
CCTGCCCTTGCCTGA (double strand) [ds 15-mer],binding result,"[1]; some ATM unbound, most bound elutes in lower salt wash, label: 5' biotin on SEQ:12",binds more weakly
CCTGCCCTTGCCTGACGCTATTAGT (double strand) [ds 25-mer],binding result,"[1]; binding increases progressively with duplex length, label: 5' biotin on SEQ:14",binds
CCTGCCCTTGCCTGACGCTATTAGTTCATCTATTTGTTTTGCTAATTCGATTGGAATCGAAACGGTCACATATTCTTTTTTGACTGATTTCCTCGGCATA / TATGCCGAGGAAATCAGTCAAAAAAGAATATGTGACCGTTTCGAATTAGCAAAACAAATAGATGAACTAATAGCGTCAGGCAAGGGCAGG [10 bp insertion DYNO+DAM6],binding result,[1]; [5],binds
CCTGCCCTTGCCTGACGCTATTAGTTCATCTATTTGTTTTGCTAATTCGATTGGAATCGAAACGGTCACATATTCTTTTTTGACTGATTTCCTCGGCATA / TATGCCGAGGAAATCAGTCAAAAAAGAATATGTGACCGTTTCGATTCCAA / TCGAATTAGCAAAACAAATAGATGAACTAATAGCGTCAGGCAAGGGCAGG [nicked oligo DYNO+DAM2+DAM3],binding result,[1]; [5],binds
CCTGCCCTTGCCTGACGCTATTAGTTCATCTATTTGTTTTGCTAATTCGATTGGAATCGAAACGGTCACATATTCTTTTTTGACTGATTTCCTCGGCATA / TCGAATTAGCAAAACAAATAGATGAACTAATAGCGTCAGGCAAGGGCAGG / TATGCCGAGGAAATC [gapped ds oligo DYNO+DAM3+DAM5],binding result,[1]; [5],binds
CCTGCCCTTGCCTGACGCTATTAGTTCATCTATTTGTTTTGCTAATTCGATTGGAATCGAAACGGTCACATATTCTTTTTTGACTGATTTCCTCGGCATA / TCGAATTAGCAAAACAAATAGATGAACTAATAGCGTCAGGCAAGGGCAGG [ds/ss transition DYNO+DAM3],binding result,[1]; [5],binds
GATCGAATCCGATAGAGTATAGATAGAGTAAAGTTTAAATACTTATATAGATAGAGTATAGATAGAGGGTTCAAA (double strand) [ds 75-mer],binding result,"[1]; almost quantitative, elutes in higher salt wash, label: 5' biotin on SEQ:18",binds
TTGTAAAACGACGGCCAGTGAATTCATCATCAATAATATACCTTATTTTG (double strand) [ds 50-mer],binding result,[2],binds more weakly
same,binding result,[3],no binding
same,binding result,"[1]; over 90% of ATM bound, binding almost quantitative, bound in 50 mM KCl, elutes at 500 mM KCl, label: 5' biotin on SEQ:16",binds
same,binding result,[4],no binding
TTGTAAAACGACGGCCAGTGAATTCATCATCAATAATATACCTTATTTTG [ss 50-mer],binding result,"[1]; binds effectively to ssDNA, 50 mM KCl, label: 5' biotin, single-stranded DNA",binds
